Experimental data: PubChem BioAssay AID1224826 (NIAID, 2016)

Purpose: 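Genes that change LPS-induced Tnf promoter activity in mouse macrophages when knocked down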 (primary screen)
System: RAW264.7 G9 macrophages from mouse bearing reporters for p65 (GFP) and the Tnf promoter (mCherry)
Reagent: siRNA pool against mouse genes, 100 nM
Duration: 16 h of LPS stimulation, after 2 days of siRNA transfection
Conditions: bacterial lipopolysaccharide (Salmonella minnesota R595), 10 ng/ml
Measurement: 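Imaged Tnf reporter mCherry in nuclei, minus background, normalised per plate to the median and expressed as robust z-scores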
Reading the numbers: Tnf reporter robust z-score: higher = stronger Tnf promoter reporter signal after LPS
Hit rule: 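a well counts as active at a score of -1.3 or below (Tlr4 knock-down control median) or above 3 (raised signal); controls and wells holding fewer than 50 cells are excluded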
Meaning of the calls: active = Tnf reporter clearly lowered or raised; inactive = no clear change in Tnf reporter
Shown is one part, drawn at random, of about 17,000 deposited reagents. About 1,110 of all reagents (6.6%) count as active. 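Active means lowered or raised reporter signal; replicate intensities are raw and not normalised per plate.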 Further read-outs or replicates are left out here.

Knock-down of Capza2 (GeneID 12343) gave: Tnf reporter robust z-score -0.22; fewer than 50 cells in well enough cells in well; inactive.
Against Ifitm2 (GeneID 80876) the deposit lists Tnf reporter robust z-score -1.27; fewer than 50 cells in well enough cells in well; inactive.
After knock-down of Hdac10 (GeneID 170787), the record shows Tnf reporter robust z-score 0.72; fewer than 50 cells in well enough cells in well; inactive.
Cadm2 (GeneID 239857) scored Tnf reporter robust z-score -0.93; fewer than 50 cells in well enough cells in well; inactive.
Against Ugt2b38 (GeneID 100559) the deposit lists Tnf reporter robust z-score 0.6; fewer than 50 cells in well enough cells in well; inactive.
Silencing of Zfp64 (GeneID 22722) gave: Tnf reporter robust z-score 0; fewer than 50 cells in well enough cells in well; inactive.
Silencing of Cyp4a14 (GeneID 13119) came out at: Tnf reporter robust z-score -0.58; fewer than 50 cells in well enough cells in well; inactive.
For Aacs (GeneID 78894), the values are Tnf reporter robust z-score 2.13; fewer than 50 cells in well enough cells in well; inactive.
Vstm2l (GeneID 277432) gave Tnf reporter robust z-score 2.16; fewer than 50 cells in well enough cells in well; inactive.
Apbb1ip (GeneID 54519) gave Tnf reporter robust z-score -0.25; fewer than 50 cells in well enough cells in well; inactive.
Gatb (GeneID 229487) scored Tnf reporter robust z-score -1.01; fewer than 50 cells in well enough cells in well; inactive.
After knock-down of Bcr (GeneID 110279), the record shows Tnf reporter robust z-score -0.4; fewer than 50 cells in well enough cells in well; inactive.
Knock-down of Ptgds (GeneID 19215) resulted in: Tnf reporter robust z-score -0.47; fewer than 50 cells in well enough cells in well; inactive.
Sh3bp5 (GeneID 24056) gave Tnf reporter robust z-score -1.26; fewer than 50 cells in well enough cells in well; inactive.
Saraf (GeneID 67887) scored fewer than 50 cells in well fewer than 50 cells per well; well left out of calls; inactive.
With knock-down of Pcdh18 (GeneID 73173) the results were Tnf reporter robust z-score -0.02; fewer than 50 cells in well enough cells in well; inactive.
After knock-down of Glmn (GeneID 170823) the results were Tnf reporter robust z-score -0.52; fewer than 50 cells in well enough cells in well; inactive.
Mei4 (GeneID 75033) scored fewer than 50 cells in well fewer than 50 cells per well; well left out of calls; inactive.
Knock-down of Ca1 (GeneID 12346) came out at: Tnf reporter robust z-score -0.58; fewer than 50 cells in well enough cells in well; inactive.
After knock-down of Herc1 (GeneID 235439) the results were Tnf reporter robust z-score 0.38; fewer than 50 cells in well enough cells in well; inactive.
Against Uap1 (GeneID 107652), the entry reads Tnf reporter robust z-score -0.51; fewer than 50 cells in well enough cells in well; inactive.
Silencing of Cdk1 (GeneID 12534) resulted in: fewer than 50 cells in well fewer than 50 cells per well; well left out of calls; inactive.
After knock-down of Sdcbp (GeneID 53378), the record shows Tnf reporter robust z-score 2.23; fewer than 50 cells in well enough cells in well; inactive.
Gale (GeneID 74246) gave Tnf reporter robust z-score 0.17; fewer than 50 cells in well enough cells in well; inactive.
After knock-down of Rnf44 (GeneID 105239), the screen gave Tnf reporter robust z-score -0.34; fewer than 50 cells in well enough cells in well; inactive.
With knock-down of Cdh1 (GeneID 12550), the record shows Tnf reporter robust z-score -0.58; fewer than 50 cells in well enough cells in well; inactive.
Nploc4 (GeneID 217365) showed Tnf reporter robust z-score 0.86; fewer than 50 cells in well enough cells in well; inactive.

2 entries from above, ordered by “Tnf reporter robust z-score”, ascending:
Apbb1ip (GeneID 54519) — Tnf reporter robust z-score: -0.25; fewer than 50 cells in well: enough cells in well; outcome: inactive
Vstm2l (GeneID 277432) — Tnf reporter robust z-score: 2.16; fewer than 50 cells in well: enough cells in well; outcome: inactive
